Source: article PMC7801519
Results are given in words; binding and its absence hold for the method and conditions named. Binding seen in cells or lysates may run through a third protein. Some results given as binding are weak or reduced against the parent protein; the word gives no strength.

Columns and labels:
[1] = target: T1, PBK, endogenous in CNE2 and SUNE1 cells (human (endogenous in CNE2 and SUNE1)) (UniProt Q96KB5); experiment: co-IP; endogenous proteins of CNE2 and SUNE1 cells; precipitated with an anti-PBK antibody, blotted with anti-MSL1; IP lysis buffer, overnight at 4 °C
T1 sequence: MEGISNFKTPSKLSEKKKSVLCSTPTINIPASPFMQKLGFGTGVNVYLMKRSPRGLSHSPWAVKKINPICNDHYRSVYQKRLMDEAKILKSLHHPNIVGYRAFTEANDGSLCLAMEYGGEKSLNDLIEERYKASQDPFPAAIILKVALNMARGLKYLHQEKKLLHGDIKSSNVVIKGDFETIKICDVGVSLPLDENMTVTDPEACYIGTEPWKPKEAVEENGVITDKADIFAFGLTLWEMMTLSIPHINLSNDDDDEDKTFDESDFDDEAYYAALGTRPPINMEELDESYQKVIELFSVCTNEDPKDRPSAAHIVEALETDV

[2] = target: T2, MSL1, endogenous in NPC cell lines (human (endogenous in CNE2, SUNE1, CNE1 and HK1)) (UniProt Q68DK7); experiment: co-IP; endogenous proteins; precipitated with an anti-MSL1 antibody, blotted for MSL2, MSL3 and KAT8; CNE1 and HK1 stable PBK-overexpression or control lines; CNE2 and SUNE1 cells with PBK siRNAs or NC for 48 h; IP lysis buffer, overnight at 4 °C
T2 sequence: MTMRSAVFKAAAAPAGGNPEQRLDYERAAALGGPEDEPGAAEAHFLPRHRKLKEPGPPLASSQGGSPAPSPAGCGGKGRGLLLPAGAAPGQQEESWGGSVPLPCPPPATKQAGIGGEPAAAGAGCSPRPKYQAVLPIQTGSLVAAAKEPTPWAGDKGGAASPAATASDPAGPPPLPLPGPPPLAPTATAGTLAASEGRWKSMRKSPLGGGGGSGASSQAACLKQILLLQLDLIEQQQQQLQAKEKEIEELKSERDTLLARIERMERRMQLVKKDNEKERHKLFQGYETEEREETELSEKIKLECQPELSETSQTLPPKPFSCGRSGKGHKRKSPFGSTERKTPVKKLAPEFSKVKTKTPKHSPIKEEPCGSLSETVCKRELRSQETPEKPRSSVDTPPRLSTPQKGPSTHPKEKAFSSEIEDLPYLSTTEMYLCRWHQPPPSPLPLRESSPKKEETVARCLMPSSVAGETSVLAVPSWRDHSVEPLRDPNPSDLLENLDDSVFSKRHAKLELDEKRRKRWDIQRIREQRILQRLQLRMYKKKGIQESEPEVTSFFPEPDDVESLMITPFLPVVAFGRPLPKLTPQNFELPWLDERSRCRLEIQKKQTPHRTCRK

B1: MSL1, endogenous in NPC cell lines (protein, UniProt Q68DK7 1-614)
chain: T2 sequence
For B1, the binding [1] was “binds”.

B2: MSL2, endogenous in NPC cell lines (protein, UniProt Q9HCI7 1-577)
chain: MNPVNATALYISASRLVLNYDPGDPKAFTEINRLLPYFRQSLSCCVCGHLLQDPIAPTNSTCQHYVCKTCKGKKMMMKPSCSWCKDYEQFEENKQLSILVNCYKKLCEYITQTTLARDIIEAVDCSSDILALLNDGSLFCEETEKPSDSSFTLCLTHSPLPSTSEPTTDPQASLSPMSESTLSIAIGSSVINGLPTYNGLSIDRFGINIPSPEHSNTIDVCNTVDIKTEDLSDSLPPVCDTVATDLCSTGIDICSFSEDIKPGDSLLLSVEEVLRSLETVSNTEVCCPNLQPNLEATVSNGPFLQLSSQSLSHNVFMSTSPALHGLSCTAATPKIAKLNRKRSRSESDSEKVQPLPISTIIRGPTLGASAPVTVKRESKISLQPIATVPNGGTTPKISKTVLLSTKSMKKSHEHGSKKSHSKTKPGILKKDKAVKEKIPSHHFMPGSPTKTVYKKPQEKKGCKCGRATQNPSVLTCRGQRCPCYSNRKACLDCICRGCQNSYMANGEKKLEAFAVPEKALEQTRLTLGINVTSIAVRNASTSTSVINVTGSPVTTFLAASTHDDKSLDEAIDMRFDC
With B2 the binding [2] was “binds”.
